Record: PubChem BioAssay AID1259405 (NCATS, 2018)
The deposit covers about 50,000 reagents; this is an unselected part. About 4,000 of them (8%) count as active. 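Mouse siRNA library applied to hamster cells; one well for each siRNA.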 Reagents against one gene are numbered here. Further read-outs or replicates are left out here.

- Assay: 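Silenced genes that increase secreted GFP made by CHO cells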 (primary screen)
- Cell system: Chinese hamster CHO-K1 ovary cells with stable secreted eGFP expression
- Knock-down reagent: single siRNA against mouse genes, 0.8 pmol siRNA per well (2 µl of 400 nM stock)
- Timing: 3 days
- Detection: 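Per-well intracellular GFP measured by laser scanning cytometry, plus viability from ATP luminescence, each relative to plate median of non-targeting control wells, in %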
- Scale: GFP, % of control: higher = more GFP per well, higher productivity
- Hit rule: 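Called active when intracellular GFP, relative to negative control, is at or above 120%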

GFP, % of control, by target gene and reagent
Insc: #1 40.5 inactive; #2 54 inactive; #3 73 inactive
Wasf2: #1 72 inactive; #2 55.3 inactive; #3 119 inactive
Or4a69: #1 91 inactive; #2 123 active; #3 103 inactive
Lipi: #1 72.1 inactive; #2 109 inactive; #3 37.3 inactive
Mtx2: #1 94.5 inactive; #2 75.1 inactive; #3 32.3 inactive
Snrnp27: #1 68.5 inactive; #2 97.1 inactive; #3 56.2 inactive
Gprc5a: #1 65.2 inactive; #2 102 inactive
Swap70: #1 78.6 inactive; #2 83.3 inactive

Records listed so far marked active:
GFP, % of control, by target gene and reagent
Or4a69: #2 123 active

Next reagents:
GFP, % of control, by target gene and reagent
Ca2: #1 106 inactive; #2 65.3 inactive
Hmox2: #1 108 inactive; #2 64.7 inactive; #3 139 active
Zc3hc1: #1 51.3 inactive; #2 102 inactive
Lrrc59: #1 68.7 inactive; #2 59.2 inactive; #3 76.5 inactive
Inpp5e: #1 62.3 inactive; #2 71.1 inactive; #3 86.4 inactive
Izumo1r: #1 109 inactive; #2 62.2 inactive; #3 167 active
Nhlrc2: #1 73.9 inactive; #2 66.9 inactive
Luc7l2: #1 65 inactive; #2 46.7 inactive; #3 76.6 inactive
Wdr54: #1 99.6 inactive; #2 88.2 inactive; #3 33.2 inactive
Acad9: #1 100 inactive; #2 58.8 inactive; #3 73.2 inactive
Rmnd1: #1 86.6 inactive; #2 112 inactive; #3 148 active
Mycs: #1 137 active; #2 72.6 inactive; #3 70.6 inactive
Sim2: #1 109 inactive; #2 73.3 inactive; #3 79.6 inactive
